Patent US12168055B2, “Sonosensitization” (priority 2019, dated 2024)

Test system: C6 glioma tumor cells
Details: 5-ALA 20 mg/kg, sonication at 13.8 W/cm^2, 20 min

Compound: NCC(=O)CCC(=O)O [5-ALA, 5-aminolevulinic acid]
- rise of tumor temperature: about 2 °C
- tumor temperature: 32 °C
